Here are results for 16 compounds from PubChem BioAssay AID602254 (Broad Institute, 2012).

The structures appear in SMILES notation. Out of some 1,000 compounds screened, fewer than 10 were called active.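 The calls were made as follows: active = fitted half-maximal concentration no higher than twice the top valid tested dose, with signal falling; inconclusive = flat curve with 30 to 70% inhibition, or poor fit; inactive = the rest.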 Some of the results follow. Entries with a potency or affinity are not part of this list.

For this experiment, the target named is Golgi-associated PDZ and coiled-coil motif-containing protein (Homo sapiens) (UniProt Q9HD26). As to the kind of experiment: CAL PDZ domain peptide-binding inhibitors, dose response, biochemical, fluorescence polarization, untagged CAL PDZ, cherry-pick, set 2 (AID 602254).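 Also: 0% = DMSO neutral control and -100% = unlabeled peptide PRC23 positive control; more negative means stronger blocking of peptide binding.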 The following applies: Purified CAL PDZ, TMR peptide fluorescence polarization; at 60 µM (top of the series). (Fluorescence polarisation rises when a labelled molecule tumbles more slowly, as on binding a larger partner.)
Take `O=C(c1ccc2c(c1)OCO2)C1CCCN(CC2CCCCC2)C1` (stereo unspecified): the activity change, negative = inhibition is inactive: 0.484%. The result for `CC(NC(=O)Cc1cccc2ccccc12)C(=O)N1CCC(=O)CC1` (stereo unspecified) reads inactive: -0.614%. As to `O=C(Nc1ccc(Cl)cc1)OC1CN2CCC1CC2` (stereo unspecified), the activity change, negative = inhibition is inactive: -0.582%.

`Cc1ccc(-c2nc3ccccc3c(=O)n2-c2cccc(O)c2)cc1`: the activity change, negative = inhibition was inactive: 3.18%. In the case of `CNC(=S)N1CCn2cccc2C1c1cccnc1` (stereo unspecified) it was inactive: 2.59%; in that of `Cc1ccnc(NC(=O)CCCc2ccc(N(CCCl)CCCl)cc2)n1`, inactive: -0.792%.

With `N#CCCn1cc(C(=O)NCc2ccccc2)c(-c2ccc3c(c2)OCCO3)n1`, the activity change, negative = inhibition is inactive: 0.227%. On to `CC(C)Oc1cccc(C(=O)C2CCCN(Cc3ccon3)C2)c1` (stereo unspecified), for which the activity change, negative = inhibition is inactive: -0.697%. The result for `CCc1nc2ccc(N3CCN(C)CC3)cc2nc1CC` reads inactive: -0.813%; that for `CN1CC(C(=O)c2cccc(C(F)(F)F)c2)C(c2ccc(Cl)cc2)C1` (stereo unspecified), inactive: 2.48%; that for `CC(=O)N1CCCSC1=Nc1ccccc1`, inactive: 1.94%.

As for `CC(=NCc1cccnc1)c1c(O)n(-c2ccc(Cl)cc2)c(=O)[nH]c1=O`, the activity change, negative = inhibition was inactive: -1.62%.

For the compound `COc1ccc(C(CNC(=O)Cc2ccc(Cl)c(Cl)c2)N2CCCCC2)cc1` (stereo unspecified), the activity change, negative = inhibition is inactive: -5.77%. In the case of `CCN(CC)C(=O)c1ccc(NC(=O)CCCSc2ccccc2)cc1` it was inactive: 0.247%; in that of `C=CC1CN2CCC1CC2C(OC(C)=O)c1ccnc2ccc(OC)cc12` (stereo unspecified), inactive: 0.064%.

As to `COc1cccc(CNCCc2ccc(F)cc2)c1`, the activity change, negative = inhibition is inactive: -0.902%.
